# Reference: publication PMC3348450 (Investigational New Drugs, 2011)
# Assays:
# VEGFR 2 = conditions: cited from earlier work
# VEGFR 1 = conditions: cited from earlier work
# [1] = Treatment-related laboratory abnormalities, phase I Study 1 and Study 2; type: in vivo, human; conditions: treatment-related laboratory abnormality; pooled; N = 18
# Summary of the method: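 Laboratory abnormalities were pooled across 18 Japanese patients with solid tumours from two studies. Patients took the oral test compound in the fed state: 5 mg BID continuous dosing, preceded by single doses in some patients (5 mg; or 5, 7 and 10 mg in Study 2). Dose could be raised to 7 then 10 mg BID, or cut to 3 or 2 mg BID for toxicity.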
# [2] = Treatment-related adverse events; type: in vivo, human
# Summary of the method: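 Adverse events were graded by CTCAE version 3.0 throughout both studies in 18 Japanese patients on the oral test compound, taken in the fed state. Study 1 gave 5 mg BID continuously, six patients first receiving a single 5-mg dose. Study 2 gave single 5-, 7- and 10-mg doses, then 5 mg BID. Titration was to 7 then 10 mg BID; reduction was to 3 or 2 mg BID.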
# VEGFR 3 = conditions: cited from earlier work
# [3] = treatment-related, pooled, N = 18
structure (smiles),measurement,setting,value
"CNC(=O)c1ccccc1Sc1ccc2c(/C=C/c3ccccn3)n[nH]c2c1 [axitinib, Axitinib]",Concentration at which receptor tyrosine kinase inhibition is seen,VEGFR 2,picomolar concentrations
same,Concentration at which receptor tyrosine kinase inhibition is seen,VEGFR 1,picomolar concentrations
same,"ALP increased, grade 3/4",[1],1 (6) n (%)
same,"AST increased, grade 3/4",[1],0 n (%)
same,"Hematuria, grade 3/4",[1],0 n (%)
same,"Proteinuria, grade 3/4",[1],2 (11) n (%)
same,"TSH decreased, grade 3/4",[1],0 n (%)
same,"TSH increased, grade 3/4",[1],0 n (%)
same,Grade 3/4 fatigue,"[2]; Study 2, proactive thyroid hormone replacement therapy",no cases
same,"Fatigue, grade 3/4","[2]; treatment-related, pooled Study 1 and Study 2, N = 18",5 (28) n (%)
same,"Anorexia, grade 3/4",[2]; [3],0 n (%)
same,"Constipation, grade 3/4",[2]; [3],0 n (%)
same,"Diarrhea, grade 3/4",[2]; [3],0 n (%)
same,"Epistaxis, grade 3/4",[2]; [3],0 n (%)
same,"Headache, grade 3/4",[2]; [3],0 n (%)
same,"Hoarseness, grade 3/4",[2]; [3],0 n (%)
same,"Hypertension, grade 3/4",[2]; [3],6 (33) n (%)
same,"Nausea, grade 3/4",[2]; [3],0 n (%)
same,"Rash, grade 3/4",[2]; [3],0 n (%)
same,"Stomatitis, grade 3/4",[2]; [3],0 n (%)
same,Concentration at which receptor tyrosine kinase inhibition is seen,VEGFR 3,picomolar concentrations
